Test system: CLL cells
Test: Cytotoxicity of NOS inhibitors and NO quenchers/scavengers for freshly-isolated CLL cells in vitro
Type: cell-based, human
Conditions: Table 2, CLL cytotoxicity

Q: Which “ED50 for CLL” value does the source give for `Cc1cccc(N)n1` [2-amino-6-methyl pyridine] here?
A: >2000 µM

Source: patent US20050234026A1, “Method and agent for inducing apoptosis/cell death in leukemia cells” (priority 2003, published 2005)
